Some of the results follow. These are further read-outs of the screen, such as a control signal, another cell line or another target. No call is given for them. Compounds called inactive in the main read-out are mostly missing here. Potencies come from curve fits of mixed quality, noted in brackets.
Assay: qHTS Assay for Lipid Storage Modulators in Drosophila S3 Cells;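 as to cell number change: cells counted by Cell Tracker Red CMTPX staining in the red channel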
Details: BODIPY lipid droplet fluorescence, 18-24 h; for cell number change: measured here: cell count max response, cells fed with added oleic acid
Procedure, shortened: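 Drosophila S3 cells loaded with oleic acid (400 uM, as added) and compounds at several concentrations; lipid droplets imaged by 488-nm laser-scanning cytometry, 500–530 nm intensity and object ratio to cell channel. Percent activity normalized to 20 uM Triacsin C.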

[1] = measured here: lipid fluorescence (Fed channel) AC50, cells fed with added oleic acid
[2] = measured here: cell number channel AC50, cells fed with added oleic acid

Row | SMILES | cell number change [%] | AC50 [1] | AC50 [2]
1 | Cc1cc(N/C(=N\S(=O)(=O)c2ccc(Cl)cc2)c2ccc(F)cc2)no1 | -0.97 | 6.51 µM [rising, single point] | 
2 | CCOC(=O)c1cc(-c2ccccc2)sc1NC(=O)CN1C(=O)NC(CC)(c2ccc(F)cc2)C1=O (stereo not drawn) | -12.2 |  | 
3 | COc1ccc(CNC(=O)C(C)N2CCN(S(=O)(=O)c3ccccc3F)CC2)cc1 (stereo not drawn) | -38.6 | 14.6 µM [falling, single point] | 29.1 µM [falling, single point]
4 | CCc1ccccc1NC(=O)C(CC)Sc1nc2cc3c(cc2c(=O)n1Cc1ccco1)OCO3 (stereo not drawn) | -62.6 | 2.06 µM [falling, partial curve] | 20.6 µM [falling, partial curve, poor fit]
5 | O=C(CCOc1ccccc1)OCC(=O)c1cc2ccccc2o1 | -1.84 | 0.116 µM [falling, single point] | 6.51 µM [rising, single point]
6 | Cc1cc(NC(=O)C2CCN(S(=O)(=O)c3cccs3)CC2)no1 | 17.2 | 6.51 µM [falling, single point] | 
7 | CN(CC(=O)Nc1ccccc1Cl)C(=O)Cn1cnc2ccccc2c1=O | -29.3 |  | 
8 | O=C(c1cc(COc2ccc(F)c(F)c2)on1)N1CCN(C/C=C/c2ccccc2)CC1 | 16 | 0.82 µM [rising, single point] | 0.731 µM [rising, full curve, poor fit]
9 | CCCSc1ncc(Cl)c(C(=O)Nc2ccc(S(=O)(=O)N3CC(C)OC(C)C3)cc2)n1 (stereo not drawn) | -48.3 |  | 
10 | CSc1ccccc1NC(=O)COC(=O)c1ccccc1Cc1ccccc1 | 30.1 | 8.2 µM [rising, partial curve] | 20.6 µM [rising, single point]
11 | N#Cc1cccnc1N1CCN(C(=O)c2ccco2)CC1 | -11.8 |  | 0.00411 µM [falling, full curve, poor fit]
12 | COc1ccc(C(C)(C)C)cc1NC(=O)CCCN1C(=O)NC(C)(C)C1=O | -8.4 | 0.092 µM [falling, full curve, poor fit] | 
13 | CC#CC[N+](C)(C)CC(=O)c1ccccc1 | -2.45 | 6.51 µM [falling, single point] | 
14 | Cc1ccccc1NC(=O)CN1C(=O)c2ccccc2C1=O | 21.1 | 6.51 µM [rising, full curve] | 
15 | CC(NC(=O)c1ccccc1)C(=O)OCC(=O)N1c2ccccc2Sc2ccccc21 (stereo not drawn) | 10.6 |  | 
16 | COc1cccc(NC(=O)Cn2nnc(C(=O)NCc3ccc4c(c3)OCO4)c2N)c1 | -9.7 | 29.1 µM [rising, single point] | 

Ordered by heavy-atom count (descending): part of the list above.
Row | SMILES | cell number change [%] | AC50 [1] | AC50 [2]
4 | CCc1ccccc1NC(=O)C(CC)Sc1nc2cc3c(cc2c(=O)n1Cc1ccco1)OCO3 (stereo not drawn) | -62.6 | 2.06 µM [falling, partial curve] | 20.6 µM [falling, partial curve, poor fit]
8 | O=C(c1cc(COc2ccc(F)c(F)c2)on1)N1CCN(C/C=C/c2ccccc2)CC1 | 16 | 0.82 µM [rising, single point] | 0.731 µM [rising, full curve, poor fit]
16 | COc1cccc(NC(=O)Cn2nnc(C(=O)NCc3ccc4c(c3)OCO4)c2N)c1 | -9.7 | 29.1 µM [rising, single point] | 

Reference: PubChem BioAssay AID2685 (National Center for Advancing Translational Sciences (NCATS), 2010)
